# Laboratory results taken from PubChem BioAssay AID662 (National Center for Advancing Translational Sciences (NCATS), 2007).
# This is one part of the list. These are further read-outs of the screen, such as a control signal, another cell line or another target. No call is given for them. Compounds called inactive in the main read-out are mostly missing here. The note in brackets gives the kind of curve behind each potency; many fits are weak.
# Assay: Cell signaling CRE-BLA (Fsk stim)
# Settings: CHO CRE-bla reporter (cAMP response element driving beta-lactamase), forskolin EC10, beta-lactamase ratio; measured here: 460 nm blue channel
# Text: NIH Molecular Libraries Screening Centers Network [MLSCN]
# NIH Chemical Genomics Center [NCGC]
# Assay Provider: Marshall W. Nirenberg, U.S. National heart lung & blood institute
# Memories persist for different lengths of time, from seconds or minutes to a lifetime. There are two kinds of memory: short-term memory (STM) and long-term memory (LTM). STM lasts for minutes to hours, which maybe mediated by modifications of molecules involved in synaptic functions. LTM lasts for days or longer, and may be due to the formation of new synapses or restructuring of existing synapses. LTM, but not STM, requires gene transcription and synthesis of proteins. CREB (cyclic-AMP Responsive Element Binding Protein) is one of the candidates plays an important role for enhancement of some types of LTM. CREB, a family of transcription factors, regulates the transcription of genes containing cAMP Responsive Elements (CRE). CRE is a nucleotide sequence often found in the promoter regions of genes that are binding sites for CREB.
# Using a beta-lactamase reporter-gene under control of cAMP responsive element, a cell-based assay [CellSensor(TM) CRE-bla CHO developed by Invitrogen Corp.] was used to measure forskolin-induced signaling. Library compounds were measured for their ability to modulate positively or negatively the action of EC10 NKH 477, a water soluble forskolin, on reporter gene activity. Compounds were screened in a titration series in 1536-well format. Positive and negative modulators were identified based on the AC50 values derived from the screening data.
# NCGC Assay Protocol Summary
# 2000 cells/5uL in Opti-MEM medium containing 0.5% dialyzed FBS, 0.1 mM NEAA, 1 mM sodium pyruvate and 10 mM HEPES was dispensed into 1536-well plates and cells were cultured at 37 degrees Celsius overnight. […] And then the plates were incubated at 37 degrees Celsius for 3 hours. 1 uL of CCF4-dye mixture was added to each well. After incubated at room temperature for 2 hours the plates were measured on an EnVision plate reader at Excitation 405nm, Emission1=460nm and Emission 2=530nm. The %Activity was determined from the ratio of 460nm/530nm.
# Keywords: NIH Roadmap, MLSCN, MLSMR, qHTS, NCGC, CRE, beta-lactamase reporter-gene assay.
row,SMILES,AC50
1,O=C(CSc1n[nH]c(-c2ccco2)n1)Nc1sc2c(c1C(=O)Nc1ccccc1)CCCC2,"2 µM [rising, full curve]"
2,O=C(OCc1nnc(-c2ccccc2)o1)c1cc(S(=O)(=O)N2CCOCC2)c(Cl)cc1Cl,"3.16 µM [falling, partial curve]"
3,COC(=O)c1c(C#N)c(N)nc2c1CCC2,"2.51 µM [rising, full curve]"
4,CCOC(=O)c1oc2ccc(Br)cc2c1CSc1nnc(C)s1,"15.8 µM [falling, single point]"
5,O=C(COc1ccccc1F)NC1CC1,"0.00398 µM [falling, full curve]"
6,Cc1nc2c(C(=O)N3CCN(c4ccccn4)CC3)cnn2c(C)c1Cc1cccc(Cl)c1,"7.94 µM [rising, partial curve]"
7,C=CCn1c(SCC(=O)Nc2cc(C)c(Cl)cc2OC)nnc1-c1ccco1,"10 µM [rising, partial curve]"
8,Cc1ccc(C)c(-n2c(SCC(=O)N3CCCC3)nnc2-c2ccccn2)c1,"12.6 µM [rising, single point]"
9,Cc1ccccc1-c1nc(CN2CCC(C(=O)NCCCN3CCCC3)CC2)c(C)o1,"0.2 µM [rising, full curve, poor fit]"
10,O=c1c(-c2ccc(Cl)cc2)nc2cnc(N3CCNCC3)nc2n1Cc1cccs1,"2 µM [rising, full curve]"
11,CC(C)c1ccc(OCC(O)CN2CCN(c3ccccc3)CC2)cc1 (centres undefined),"0.0794 µM [falling, full curve, poor fit]"
12,O=C1CS/C(=N\C(=O)N2c3ccccc3Sc3ccccc32)N1,"5.01 µM [falling, partial curve, poor fit]"
13,CCOC(=O)CC(=O)CSc1nc2sc(C)cc2c(=O)n1Cc1ccco1,"7.94 µM [rising, partial curve]"
14,Cc1ccccc1Nc1nn2c(=O)c3ccccc3nc2s1,"0.631 µM [rising, full curve]"
15,Cc1cc(C)c(S(=O)(=O)Nc2cccc(C(F)(F)F)c2)c(C)c1,"15.8 µM [falling, partial curve]"
16,Cn1c(-c2ccc3c(c2)OCO3)cnc1NCc1cccc(Cl)c1,"5.01 µM [falling, partial curve]"
17,Cc1cccc2cc(C#N)c(N3CCCC3)nc12,"12.6 µM [rising, partial curve]"
18,CCc1nc2sc3c(c2c(=O)n1N)CCC3,"10 µM [rising, single point]"
19,CCOC(=O)c1c(NC(=O)c2ccoc2C)sc2c1CCC2,"5.01 µM [rising, partial curve]"

# Random excerpt: two entries already listed, in no set order.
row,SMILES,AC50
4,CCOC(=O)c1oc2ccc(Br)cc2c1CSc1nnc(C)s1,"15.8 µM [falling, single point]"
19,CCOC(=O)c1c(NC(=O)c2ccoc2C)sc2c1CCC2,"5.01 µM [rising, partial curve]"
